US20220089765A1, “CD31 COMPETITORS AND USES THEREOF” (ENCEFA, priority 2019, published 2022)
No constants are given. Whether binding was seen depends on the method and setting. Some results given as binding are weak or reduced against the parent protein; the word gives no strength.

The chains behind the UniProt entries cited, without tags or fusion partners. Where a name states a change or a piece, a line headed by the entry shows the natural chain unless it says otherwise.
UniProt P28907: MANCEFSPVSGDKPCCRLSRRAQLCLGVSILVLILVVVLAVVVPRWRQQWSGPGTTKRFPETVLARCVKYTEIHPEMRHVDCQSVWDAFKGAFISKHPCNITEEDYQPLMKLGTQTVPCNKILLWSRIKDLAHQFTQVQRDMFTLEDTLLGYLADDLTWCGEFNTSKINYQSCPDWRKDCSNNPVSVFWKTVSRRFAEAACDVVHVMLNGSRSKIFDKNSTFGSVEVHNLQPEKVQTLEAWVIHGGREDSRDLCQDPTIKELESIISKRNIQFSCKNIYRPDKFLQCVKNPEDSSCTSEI

Biological target: human CD38 (human) (UniProt P28907)
Experiment: phage display selection on human CD38 extracellular domain; binding confirmed by FACS on CD38+ Jurkat T cells

Row | Binder | binding
1 | anti-CD38 scFv Clone D06 (scFv, V domains shown) VH: EVQLVESGGSLVKPGGSLRLSCAASGFTFSNYDMNWVRQAPGKGLEWISYIYGSSRDISYADFVKGRFTISRDNAKNSLYLQMNSLRAEDTAVYYCVRSSGYYFGYGMDVWGRGTLVTVSS VL: QSVLTQPASVSGSPGQSITISCAGTSSDVGGSYYVSWYQQHPGKAPKLMIYSDSYRPSGVSNRFSGSKSGNTASLTISGLQAEDEADYYCSSNTAYSTRVFGGGTKL | binds
2 | anti-CD38 scFv Clone D07 (scFv, V domains shown) VH: EVQLVESGGSLVKPGGSLRLSCAASGFTFSNSAMNWVRQAPGKGLEWISYISGSSRDISYADFVKGRFTISRDNAKNSLYLQMNSLRAEDTAVYYCVRSSSSYYYSGSGMDVWGRGTLVTVSS VL: QSVLTQPASVSGSPGQSITISCAGTSSDVGGNSYVSWYQQHPGKAPKLMIYYDSYRPSGVSNRFSGSKSGNTASLTISGLQAEDEADYYCSSNTYYSTRVFGGGTKL | binds
3 | anti-CD38 scFv Clone D10 (scFv, V domains shown) VH: EVQLVESGGSLVKPGGSLRLSCAASGFTFSNSAMNWVRQAPGKGLEWISSISGSSRDIYYADFVKGRFTISRDNAKNSLYLQMNSLRAEDTAVYYCVRSSSSYYYSGNGMDVWGRGTLVTVSS VL: QSVLTQPASVSGSPGQSITISCAGTSSDVGGNSYVSWYQQHPGKAPKLMIYYDSYRPSGVSNRFSGSKSGNTASLTISGLQAEDEADYYCSSNTYYSTRVFGGGTKL | binds
4 | anti-CD38 scFv Clone B08 (scFv, V domains shown) VH: EVQLVESGGSLVKPGGSLRLSCAASGFTFSNYYMNWVRQAPGKGLEWISSISGSSRSIYYADFVKGRFTISRDNAKNSLYLQMNSLRAEDTAVYYCVRSSDDYYYDYGMDVWGRGTLVTVSS VL: QSVLTQPASVSGSPGQSITISCAGTSSDVGGSYSVSWYQQHPGKAPKLMIYDDSNRPSGVSNRFSGSKSGNTASLTISGLQAEDEADYYCSSYTDYSTRVFGGGTKL | binds
5 | anti-CD38 scFv Clone C05 (scFv, V domains shown) VH: EVQLVESGGSLVKPGGSLRLSCAASGFTFSNNYMNWVRQAPGKGLEWISSISGSSRYISYADFVKGRFTISRDNAKNSLYLQMNSLRAEDTAVYYCVRSSSSYYYSGNGMDVWGRGTLVTVSS VL: QSVLTQPASVSGSPGQSITISCAGTSSDVGGSSYVSWYQQHPGKAPKLMIYYDSYRPSGVSNRFSGSKSGNTASLTISGLQAEDEADYYCSSNTYYSTRVFGGGTKL | binds
6 | anti-CD38 scFv Clone C06 (scFv, V domains shown) VH: EVQLVESGGSLVKPGGSLRLSCAASGFTFSNSAMNWVRQAPGKGLEWISSISGSSRNIYYADFVKGRFTISRDNAKNSLYLQMNSLRAEDTAVYYCVRSSYSSYGSGNGMDVWGRGTLVTVSS VL: QSVLTQPASVSGSPGQSITISCAGTSSDVGGSSYVSWYQQHPGKAPKLMIYYDSYRPSGVSNRFSGSKSGNTASLTISGLQAEDEADYYCSSNTYYSTRVFGGGTKL | binds
